PMC13181761 (Journal of Medicinal Chemistry, 2026)

Experiments:
peptide synthesis = settings: whole synthesis
[1] = general procedure: Fmoc solid-phase peptide synthesis; settings: whole synthesis, 214 nm

Substance	final HPLC purity (peptide synthesis) [%]	other results
PEPTIDE1{[dY].I.C.V.[Trp1Me].Q.D.W.[Sar].A.H.R.C.[NMeIle].[am]}$PEPTIDE1,PEPTIDE1,3:R3-13:R3$$$V2.0	>98	
PEPTIDE1{[dY].I.C.I.[Trp1Me].Q.D.W.[Sar].A.H.R.C.[NMeIle].[am]}$PEPTIDE1,PEPTIDE1,3:R3-13:R3$$$V2.0	>98	
PEPTIDE1{[dY].I.C.I.[Trp1Me].Q.D.W.[Sar].A.H.R.C.[NMeIle].K.K.[am]}$PEPTIDE1,PEPTIDE1,3:R3-13:R3$$$V2.0		final HPLC purity (peptide synthesis; Acetate salt): >98%
PEPTIDE1{[ac].I.C.V.[1MeTrp].Q.D.W.G.A.H.R.C.T.[am]}$PEPTIDE1,PEPTIDE1,3:R3-13:R3$$$V2.0	>98	
Ac-ICI[Trp(1-Me)]QDWGAHRCT-NH2 (disulfide 2-12; SMILES CC[C@H](C)[C@H](NC(C)=O)C(=O)N[C@H]1CSSC[C@@H](C(=O)N[C@H](C(N)=O)[C@@H](C)O)NC(=O)[C@H](CCCNC(=N)N)NC(=O)[C@H](Cc2c[nH]cn2)NC(=O)[C@H](C)NC(=O)CNC(=O)[C@H](Cc2c[nH]c3ccccc23)NC(=O)[C@H](CC(=O)O)NC(=O)[C@H](CCC(N)=O)NC(=O)[C@H](Cc2cn(C)c3ccccc23)NC(=O)[C@H]([C@@H](C)CC)NC1=O)	95	
Ac-ICVWQDW[dA]AHRCT-NH2 (disulfide 2-12)		final HPLC purity [1]: >98%
Ac-ICIWQDWGAHRCT-NH2 (disulfide 2-12; SMILES CC[C@H](C)[C@H](NC(C)=O)C(=O)N[C@H]1CSSC[C@@H](C(=O)N[C@H](C(N)=O)[C@@H](C)O)NC(=O)[C@H](CCCNC(=N)N)NC(=O)[C@H](Cc2c[nH]cn2)NC(=O)[C@H](C)NC(=O)CNC(=O)[C@H](Cc2c[nH]c3ccccc23)NC(=O)[C@H](CC(=O)O)NC(=O)[C@H](CCC(N)=O)NC(=O)[C@H](Cc2c[nH]c3ccccc23)NC(=O)[C@H]([C@@H](C)CC)NC1=O)	>98	

For some of these results: HELM strings list residues between dots; [ac] is acetyl, [am] amide, other brackets name non-standard units. Bridges are numbered along the chain shown (N, C = ends). [ ]: non-standard residue; d: D form. Trp(1-Me) = Cn1cc(C[C@H](N)C(=O)O)c2ccccc21
